In this experiment the target is GST-UAP56 (human) (UniProt Q13838). The experiment can be described thus: pull-down; GST pulldown with purified recombinant GST-UAP56, His-API5 and His-LMW FGF2; Coomassie blue staining and western blot with anti-His tag antibody; both purified.

The chains behind the UniProt entries cited, without tags or fusion partners. Where a name states a change or a piece, a line headed by the entry shows the natural chain unless it says otherwise. A line that says so, or that is headed by a name, gives the form on record, which may keep a tag or linker. Residues count along the entry.
UniProt Q13838: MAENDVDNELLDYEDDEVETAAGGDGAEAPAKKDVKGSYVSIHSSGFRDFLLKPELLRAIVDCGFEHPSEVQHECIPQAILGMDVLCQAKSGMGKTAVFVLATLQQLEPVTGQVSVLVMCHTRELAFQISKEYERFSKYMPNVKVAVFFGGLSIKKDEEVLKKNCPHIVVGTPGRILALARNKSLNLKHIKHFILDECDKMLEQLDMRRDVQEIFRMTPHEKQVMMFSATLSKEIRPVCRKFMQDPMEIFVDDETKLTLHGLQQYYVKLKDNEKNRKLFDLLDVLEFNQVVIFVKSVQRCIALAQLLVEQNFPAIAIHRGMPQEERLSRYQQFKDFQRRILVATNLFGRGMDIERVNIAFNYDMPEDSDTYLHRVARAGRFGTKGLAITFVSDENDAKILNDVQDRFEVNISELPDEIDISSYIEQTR
His-FGF2, LMW FGF2 (residues 135-288, C211S/C229S) (P09038, form named): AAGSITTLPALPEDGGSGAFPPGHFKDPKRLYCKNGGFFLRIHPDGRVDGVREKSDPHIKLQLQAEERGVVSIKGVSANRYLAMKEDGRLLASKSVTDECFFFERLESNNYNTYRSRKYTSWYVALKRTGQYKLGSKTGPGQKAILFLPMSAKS

No constants are given. Whether binding was seen depends on the method and setting. Some entries that bind do so weakly or less than the wild type.

Consider one substance from article PMC7293033.

On to “His-FGF2, LMW FGF2 (residues 135-288, C211S/C229S) (from UniProt P09038 135-288)”, for which the binding entry was “binds”.
